Values from PubChem BioAssay AID1508588 (Peter MacCallum Cancer Centre, 2020)

Purpose: 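Knock-downs boosting vemurafenib effects on melanoma cell growth or lactate release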 (primary screen)
Cells: human WM266.4 melanoma cells (BRAF V600 mutant)
Knock-down reagent: siRNA pool against human genes, 40 nM
Time to read-out: 96 h from transfection to read-out
Conditions: vemurafenib 300 nM (about IC25), added 48 h after transfection, for 48 h; comparison arm got DMSO vehicle only
Read-out: 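Ratios to non-targeting siRNA for cell gain, counted as DAPI nuclei after minus before drug and averaged over two replicates, and for absorbance-read medium lactate per cell; both binned into fold-change classes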
Scale: cell gain with vemurafenib: higher = more cell gain than with non-targeting siRNA; lactate per cell with vemurafenib: higher = more lactate made per cell
Call rule: 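a knock-down counts as enhancing when its fold-change classes with vehicle and with vemurafenib, taken together, show a stronger drug effect on cell gain or lactate per cell; exact class pairs not stated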
Calls: active = enhances vemurafenib effect; inactive = no enhancement seen
The deposit covers about 18,000 reagents; this is an unselected part. 790 of all reagents (4.4%) were called active. 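Calls rest on a combination of fold-change classes in drug and vehicle arms, not all shown here.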 Entries without a mark were called inactive. No sequences are given here.

SPATA18 (GeneID 132671) → cell gain with vemurafenib = 0.68; lactate per cell with vemurafenib = 0.52
EFNA5 (GeneID 1946) → cell gain with vemurafenib = 0.79; lactate per cell with vemurafenib = 0.56
OGDHL (GeneID 55753) → cell gain with vemurafenib = 0.44; lactate per cell with vemurafenib = 1.8
STAMBPL1 (GeneID 57559) → cell gain with vemurafenib = 0.3; lactate per cell with vemurafenib = 2.25
TMEM102 (GeneID 284114) → cell gain with vemurafenib = 1.08; lactate per cell with vemurafenib = 0.99
CCPG1 (GeneID 9236) → cell gain with vemurafenib = 0.26; lactate per cell with vemurafenib = 0.98
PLA2G2D (GeneID 26279) → cell gain with vemurafenib = 0.39; lactate per cell with vemurafenib = 1.42
ACTRT2 (GeneID 140625) → cell gain with vemurafenib = 0.65; lactate per cell with vemurafenib = 1.19
FRMD3 (GeneID 257019) → cell gain with vemurafenib = 0.29; lactate per cell with vemurafenib = 0.78
TMEM266 (GeneID 123591) → cell gain with vemurafenib = 0.78; lactate per cell with vemurafenib = 0.92
CNPY3 (GeneID 10695) → cell gain with vemurafenib = 0.47; lactate per cell with vemurafenib = 0.74
ZNF274 (GeneID 10782) → cell gain with vemurafenib = 0.5; lactate per cell with vemurafenib = 1.42
EDEM1 (GeneID 9695) → cell gain with vemurafenib = 1.04; lactate per cell with vemurafenib = 0.66
PCYOX1 (GeneID 51449) → cell gain with vemurafenib = 0.92; lactate per cell with vemurafenib = 0.73
LDLRAD3 (GeneID 143458) → cell gain with vemurafenib = 0.23; lactate per cell with vemurafenib = 1.19
MANSC1 (GeneID 54682) → cell gain with vemurafenib = 0.16; lactate per cell with vemurafenib = 1.68
ELL2 (GeneID 22936) → cell gain with vemurafenib = 0.77; lactate per cell with vemurafenib = 0.57
MPV17L2 (GeneID 84769) → cell gain with vemurafenib = 0.84; lactate per cell with vemurafenib = 1.12
GLUD1 (GeneID 2746) → cell gain with vemurafenib = 1.22; lactate per cell with vemurafenib = 0.53
GRM6 (GeneID 2916) → cell gain with vemurafenib = 0.35; lactate per cell with vemurafenib = 1.9
SRSF1 (GeneID 6426) → cell gain with vemurafenib = -0.05; lactate per cell with vemurafenib = 3.43
HIGD1A (GeneID 25994) → cell gain with vemurafenib = 0.94; lactate per cell with vemurafenib = 0.68
METTL9 (GeneID 51108) → cell gain with vemurafenib = 0.53; lactate per cell with vemurafenib = 0.71
RNF114 (GeneID 55905) → cell gain with vemurafenib = 0.99; lactate per cell with vemurafenib = 0.74
PKD1L2 (GeneID 114780) → cell gain with vemurafenib = 1.11; lactate per cell with vemurafenib = 0.56
HIC2 (GeneID 23119) → cell gain with vemurafenib = 0.5; lactate per cell with vemurafenib = 0.83
KLHDC4 (GeneID 54758) → cell gain with vemurafenib = 1.26; lactate per cell with vemurafenib = 0.61

Laid out differently: 2 of the entries above.
{"gene": "HIGD1A (GeneID 25994)", "cell gain with vemurafenib": 0.94, "lactate per cell with vemurafenib": 0.68}
{"gene": "METTL9 (GeneID 51108)", "cell gain with vemurafenib": 0.53, "lactate per cell with vemurafenib": 0.71}
